Results as given in patent US4238390A, “Synthesis and biological activity of [D-Thr^2, Δ^3 Pro^5 ]-enkephalinamide” (Hoffmann-La Roche Inc., priority 1979, dated 1980).
Where two headings read alike, the source gives them in different places.

Tested on: 5-HTP Diarrhea
Assay: Anti-diarrhea activity against 5-HTP diarrhea in CD-1 mice (comparative tests)
Format: in vivo, Male CD-1 mice
Details: for Anti-Diarrhea ED50 ± S.E.: Sulfate
Description: The anti-diarrhea ED50 values were determined using a computer program "ED50" based on the probit method of D. J. Finney, "Probit Analysis", Cambridge University Press, Cambridge, Great Britain (1971). The average percent inhibition obtained at each dose level of [D-Thr^2, Δ^3 Pro^5 ]-enkephalinamide was used as the response.
Male CD-1 mice were obtained from Charles River, Inc., Wilmington, Massachusetts, and weighted between 18 and 25 grams at the time of use.
All compounds with the exception of 5-HTP were dissolved in sterile 0.9% sodium chloride solution. Distilled water was used as the vehicle for 5-HTP. All compounds were administered to the mice using a constant dosage volume of 0.2 ml/20 gms of body weight.
In the experiment involving naloxone HCl, it or the vehicle were given 5 minutes prior to the administration of β-endorphin.
The amount of diarrhea produced by 5-HTP was determined as follows. Immediately following the administration of 5-HTP, the mice were individually housed in open-bottomed wire cages of a width and length of 8.5 cm and a height of 7.5 cm, resting on preweighed plastic sheets. The mice were removed from the cages 30 minutes after receiving 5-HTP, and any visible urinary discharge present on the plastic sheet was blotted dry. The sheets were then reweighed. The weight increment was considered to represent fecal weight.

Compound: CN1CC[C@]23c4c5ccc(O)c4O[C@H]2[C@@H](O)C=C[C@H]3[C@H]1C5.O=S(=O)(O)O [Morphine Sulfate]
- inhibition at 0.07 µmol/kg (Mus musculus, 0.07 μmoles/kg iv, read-out: % Inhibition of 5-HTP Diarrhea ± S.E.): 9.4 ± 10%
- inhibition at 0.07 µmol/kg (Mus musculus, 0.07 μmoles/kg sc, read-out: % Inhibition of 5-HTP Diarrhea ± S.E.): 0%
- inhibition at 0.22 µmol/kg (Mus musculus, 0.22 μmoles/kg sc, read-out: % Inhibition of 5-HTP Diarrhea ± S.E.): 0%
- Anti-Diarrhea ED50 ± S.E. (iv, 30 seconds prior to 10 mg/kg 5-HTP ip): 0.46 ± 0.150 µmol/kg
- Anti-Diarrhea ED50 ± S.E. (iv, 30 seconds prior to 10 mg/kg 5-HTP ip, listed as morphine sulfate): 0.46 µmol/kg
- Anti-Diarrhea ED50 ± S.E. (sc, 1 minute prior to 10 mg/kg 5-HTP ip): 1.45 ± 0.330 µmol/kg
- Anti-Diarrhea ED50 ± S.E. (sc, 1 minute prior to 10 mg/kg 5-HTP ip, listed as morphine sulfate): 1.45 µmol/kg
